Results from the supplement of paper PMC7666118.
The other results are listed elsewhere or left out.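 Rule for the calls: active = dose-dependent thermal stabilisation significant by F-test of dose-response against flat model at 10% FDR; inactive = not significant.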

Protein sequences, listed by entry. Tags and fused reporters are not part of them. Lines headed by an entry give the natural chain unless they say otherwise; changes in a name come on top.
UniProt Q96RT1: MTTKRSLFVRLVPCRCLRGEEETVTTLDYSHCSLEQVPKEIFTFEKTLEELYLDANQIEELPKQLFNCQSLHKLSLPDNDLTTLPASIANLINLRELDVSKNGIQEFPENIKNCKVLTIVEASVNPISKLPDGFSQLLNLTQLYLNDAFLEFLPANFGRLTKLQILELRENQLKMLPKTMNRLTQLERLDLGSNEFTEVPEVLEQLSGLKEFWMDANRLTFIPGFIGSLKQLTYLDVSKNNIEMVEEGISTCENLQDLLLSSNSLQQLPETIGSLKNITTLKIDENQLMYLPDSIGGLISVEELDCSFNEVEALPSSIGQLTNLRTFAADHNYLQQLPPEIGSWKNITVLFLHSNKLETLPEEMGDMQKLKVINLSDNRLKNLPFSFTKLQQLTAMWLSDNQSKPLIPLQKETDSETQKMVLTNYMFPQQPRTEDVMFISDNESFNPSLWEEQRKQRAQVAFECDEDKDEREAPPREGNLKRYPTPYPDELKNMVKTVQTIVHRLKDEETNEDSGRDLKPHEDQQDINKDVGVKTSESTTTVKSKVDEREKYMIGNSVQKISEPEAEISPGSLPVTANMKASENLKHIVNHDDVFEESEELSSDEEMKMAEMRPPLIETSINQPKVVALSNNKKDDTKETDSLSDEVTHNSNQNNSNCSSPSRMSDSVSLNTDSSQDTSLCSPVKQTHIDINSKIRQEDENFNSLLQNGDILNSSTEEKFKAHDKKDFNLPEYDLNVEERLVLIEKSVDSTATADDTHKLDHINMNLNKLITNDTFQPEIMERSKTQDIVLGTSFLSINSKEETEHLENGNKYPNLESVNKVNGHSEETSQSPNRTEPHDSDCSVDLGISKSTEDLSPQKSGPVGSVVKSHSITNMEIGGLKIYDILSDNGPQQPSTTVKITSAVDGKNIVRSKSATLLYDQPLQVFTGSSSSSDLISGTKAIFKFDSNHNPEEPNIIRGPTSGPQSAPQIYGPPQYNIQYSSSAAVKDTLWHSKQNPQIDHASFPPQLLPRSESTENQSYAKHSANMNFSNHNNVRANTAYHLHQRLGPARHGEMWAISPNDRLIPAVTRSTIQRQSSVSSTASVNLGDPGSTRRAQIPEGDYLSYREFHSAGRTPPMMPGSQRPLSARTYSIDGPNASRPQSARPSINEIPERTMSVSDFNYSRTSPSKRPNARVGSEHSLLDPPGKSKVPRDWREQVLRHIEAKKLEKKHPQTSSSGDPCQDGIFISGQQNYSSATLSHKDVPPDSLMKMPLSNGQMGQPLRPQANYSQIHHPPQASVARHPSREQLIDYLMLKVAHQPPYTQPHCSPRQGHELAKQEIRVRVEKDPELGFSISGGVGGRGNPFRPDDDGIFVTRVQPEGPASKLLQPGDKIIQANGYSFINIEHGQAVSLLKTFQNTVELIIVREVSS
UniProt Q17RN3: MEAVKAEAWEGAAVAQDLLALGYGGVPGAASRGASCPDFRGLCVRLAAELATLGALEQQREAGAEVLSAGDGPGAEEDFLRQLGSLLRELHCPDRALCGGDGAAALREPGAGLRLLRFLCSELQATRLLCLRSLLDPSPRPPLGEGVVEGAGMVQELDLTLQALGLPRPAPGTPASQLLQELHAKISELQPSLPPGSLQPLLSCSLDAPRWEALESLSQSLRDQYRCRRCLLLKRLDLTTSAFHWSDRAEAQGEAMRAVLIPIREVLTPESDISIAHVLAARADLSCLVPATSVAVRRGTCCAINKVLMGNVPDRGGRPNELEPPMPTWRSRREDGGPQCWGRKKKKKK
UniProt Q09472, whole entry: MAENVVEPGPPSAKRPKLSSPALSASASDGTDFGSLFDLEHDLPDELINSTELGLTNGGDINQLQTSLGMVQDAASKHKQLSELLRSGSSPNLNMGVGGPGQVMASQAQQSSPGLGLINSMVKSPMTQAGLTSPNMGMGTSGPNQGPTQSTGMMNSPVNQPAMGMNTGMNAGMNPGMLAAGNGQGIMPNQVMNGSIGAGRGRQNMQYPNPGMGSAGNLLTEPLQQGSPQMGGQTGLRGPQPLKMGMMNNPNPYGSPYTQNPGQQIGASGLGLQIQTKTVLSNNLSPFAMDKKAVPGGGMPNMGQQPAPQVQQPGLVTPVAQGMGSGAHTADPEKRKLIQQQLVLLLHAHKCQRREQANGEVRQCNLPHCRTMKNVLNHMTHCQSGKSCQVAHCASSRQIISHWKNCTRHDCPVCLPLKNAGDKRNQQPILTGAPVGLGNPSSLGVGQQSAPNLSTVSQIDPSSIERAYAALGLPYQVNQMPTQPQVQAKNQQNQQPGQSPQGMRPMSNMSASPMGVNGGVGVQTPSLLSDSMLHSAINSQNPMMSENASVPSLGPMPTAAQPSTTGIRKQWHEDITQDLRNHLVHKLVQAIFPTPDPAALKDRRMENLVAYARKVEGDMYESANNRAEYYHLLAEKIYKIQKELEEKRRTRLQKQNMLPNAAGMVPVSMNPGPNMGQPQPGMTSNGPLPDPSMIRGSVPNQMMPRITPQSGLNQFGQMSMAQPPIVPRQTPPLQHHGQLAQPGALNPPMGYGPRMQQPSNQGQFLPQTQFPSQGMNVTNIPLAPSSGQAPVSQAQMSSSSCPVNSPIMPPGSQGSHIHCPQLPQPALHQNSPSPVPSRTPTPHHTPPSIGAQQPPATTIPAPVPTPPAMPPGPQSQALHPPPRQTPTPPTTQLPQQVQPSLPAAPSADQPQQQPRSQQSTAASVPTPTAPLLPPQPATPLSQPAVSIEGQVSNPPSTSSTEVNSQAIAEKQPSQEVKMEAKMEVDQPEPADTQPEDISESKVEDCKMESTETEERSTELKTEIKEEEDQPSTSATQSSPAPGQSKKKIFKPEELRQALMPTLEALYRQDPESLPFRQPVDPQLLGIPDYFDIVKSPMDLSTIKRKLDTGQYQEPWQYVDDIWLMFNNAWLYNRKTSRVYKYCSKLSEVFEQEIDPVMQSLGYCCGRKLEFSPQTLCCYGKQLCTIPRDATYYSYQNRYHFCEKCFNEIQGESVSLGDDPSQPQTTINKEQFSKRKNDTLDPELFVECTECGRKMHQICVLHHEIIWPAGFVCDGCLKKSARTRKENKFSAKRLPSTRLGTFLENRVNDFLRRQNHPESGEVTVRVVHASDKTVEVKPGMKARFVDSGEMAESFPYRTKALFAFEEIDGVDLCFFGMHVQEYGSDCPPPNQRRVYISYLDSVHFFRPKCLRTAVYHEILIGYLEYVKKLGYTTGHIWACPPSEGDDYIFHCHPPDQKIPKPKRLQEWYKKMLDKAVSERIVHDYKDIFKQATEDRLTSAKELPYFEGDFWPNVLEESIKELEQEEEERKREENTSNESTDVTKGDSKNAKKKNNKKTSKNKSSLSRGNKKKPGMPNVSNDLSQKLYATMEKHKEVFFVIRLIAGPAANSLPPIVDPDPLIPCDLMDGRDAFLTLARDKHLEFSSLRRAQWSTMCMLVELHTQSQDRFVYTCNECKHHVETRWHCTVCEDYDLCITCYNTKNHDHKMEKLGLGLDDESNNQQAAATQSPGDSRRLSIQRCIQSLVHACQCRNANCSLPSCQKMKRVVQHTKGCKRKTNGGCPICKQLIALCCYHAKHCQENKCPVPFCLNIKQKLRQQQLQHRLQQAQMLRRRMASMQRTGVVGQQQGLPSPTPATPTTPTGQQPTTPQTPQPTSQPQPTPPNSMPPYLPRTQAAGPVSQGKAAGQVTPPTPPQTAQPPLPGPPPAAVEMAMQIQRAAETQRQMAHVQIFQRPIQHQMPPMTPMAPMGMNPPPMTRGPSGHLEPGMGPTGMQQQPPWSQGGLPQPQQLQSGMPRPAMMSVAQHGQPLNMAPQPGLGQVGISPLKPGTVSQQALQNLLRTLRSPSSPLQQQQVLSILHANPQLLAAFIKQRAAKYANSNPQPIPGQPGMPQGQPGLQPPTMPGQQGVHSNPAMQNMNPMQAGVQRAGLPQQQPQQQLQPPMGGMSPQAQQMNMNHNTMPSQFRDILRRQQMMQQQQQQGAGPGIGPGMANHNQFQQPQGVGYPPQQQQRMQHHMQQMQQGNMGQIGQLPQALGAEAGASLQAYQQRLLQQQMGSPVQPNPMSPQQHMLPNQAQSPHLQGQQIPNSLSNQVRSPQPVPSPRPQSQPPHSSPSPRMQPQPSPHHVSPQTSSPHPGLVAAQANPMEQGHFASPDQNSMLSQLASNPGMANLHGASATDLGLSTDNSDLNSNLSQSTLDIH
UniProt Q6P3S6: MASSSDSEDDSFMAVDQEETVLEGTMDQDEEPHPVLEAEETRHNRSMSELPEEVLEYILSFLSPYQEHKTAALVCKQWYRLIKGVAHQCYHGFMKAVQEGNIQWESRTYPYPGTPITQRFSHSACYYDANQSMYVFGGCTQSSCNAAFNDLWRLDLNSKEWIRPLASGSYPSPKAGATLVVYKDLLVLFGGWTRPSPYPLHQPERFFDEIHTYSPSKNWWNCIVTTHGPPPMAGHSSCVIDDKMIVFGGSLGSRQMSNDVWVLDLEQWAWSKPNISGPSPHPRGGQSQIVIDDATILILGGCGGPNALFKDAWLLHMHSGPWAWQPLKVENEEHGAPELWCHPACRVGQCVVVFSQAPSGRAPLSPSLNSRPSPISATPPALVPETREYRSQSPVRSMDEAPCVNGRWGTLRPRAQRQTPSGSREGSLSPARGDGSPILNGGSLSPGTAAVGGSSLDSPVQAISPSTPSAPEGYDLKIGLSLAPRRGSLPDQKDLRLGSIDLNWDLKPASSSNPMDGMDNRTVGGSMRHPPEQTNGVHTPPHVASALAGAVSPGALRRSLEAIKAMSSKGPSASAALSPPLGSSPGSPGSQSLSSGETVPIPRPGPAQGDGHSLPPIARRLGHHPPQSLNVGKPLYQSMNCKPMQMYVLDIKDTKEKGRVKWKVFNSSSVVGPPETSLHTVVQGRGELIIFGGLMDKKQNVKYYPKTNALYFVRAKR
UniProt Q9Y3I1: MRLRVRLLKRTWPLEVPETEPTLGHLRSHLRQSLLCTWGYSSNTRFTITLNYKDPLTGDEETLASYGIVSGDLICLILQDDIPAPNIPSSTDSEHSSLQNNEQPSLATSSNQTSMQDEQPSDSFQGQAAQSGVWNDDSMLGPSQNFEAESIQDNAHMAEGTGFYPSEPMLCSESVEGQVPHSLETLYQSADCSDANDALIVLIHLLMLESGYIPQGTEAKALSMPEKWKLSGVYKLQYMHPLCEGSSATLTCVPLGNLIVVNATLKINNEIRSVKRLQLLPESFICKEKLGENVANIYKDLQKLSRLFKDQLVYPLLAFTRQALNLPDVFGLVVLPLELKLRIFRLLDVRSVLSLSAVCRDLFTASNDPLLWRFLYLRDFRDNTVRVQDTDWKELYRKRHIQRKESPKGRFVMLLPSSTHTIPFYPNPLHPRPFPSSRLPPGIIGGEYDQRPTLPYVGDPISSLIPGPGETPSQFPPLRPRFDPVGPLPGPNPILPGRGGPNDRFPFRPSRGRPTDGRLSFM
UniProt P06730, whole entry: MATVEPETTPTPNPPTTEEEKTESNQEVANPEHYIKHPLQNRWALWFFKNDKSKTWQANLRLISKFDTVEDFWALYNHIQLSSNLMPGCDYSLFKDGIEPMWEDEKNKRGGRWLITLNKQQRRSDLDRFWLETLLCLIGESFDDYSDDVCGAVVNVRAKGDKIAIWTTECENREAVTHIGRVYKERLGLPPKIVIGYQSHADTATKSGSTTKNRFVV
UniProt P10109: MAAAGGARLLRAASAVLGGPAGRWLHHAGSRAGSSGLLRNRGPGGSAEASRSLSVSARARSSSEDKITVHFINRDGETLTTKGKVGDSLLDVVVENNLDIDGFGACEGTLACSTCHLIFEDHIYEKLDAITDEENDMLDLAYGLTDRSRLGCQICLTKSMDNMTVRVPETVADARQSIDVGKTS
UniProt Q9HA64: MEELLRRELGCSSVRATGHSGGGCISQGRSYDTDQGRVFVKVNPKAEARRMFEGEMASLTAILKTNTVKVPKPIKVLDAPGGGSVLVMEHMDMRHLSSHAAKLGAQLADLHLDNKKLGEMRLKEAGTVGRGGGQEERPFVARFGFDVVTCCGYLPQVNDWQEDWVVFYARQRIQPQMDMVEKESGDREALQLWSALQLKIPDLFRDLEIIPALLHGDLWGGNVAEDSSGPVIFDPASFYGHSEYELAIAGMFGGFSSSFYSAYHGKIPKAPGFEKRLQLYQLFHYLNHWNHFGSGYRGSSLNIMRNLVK
UniProt P22830: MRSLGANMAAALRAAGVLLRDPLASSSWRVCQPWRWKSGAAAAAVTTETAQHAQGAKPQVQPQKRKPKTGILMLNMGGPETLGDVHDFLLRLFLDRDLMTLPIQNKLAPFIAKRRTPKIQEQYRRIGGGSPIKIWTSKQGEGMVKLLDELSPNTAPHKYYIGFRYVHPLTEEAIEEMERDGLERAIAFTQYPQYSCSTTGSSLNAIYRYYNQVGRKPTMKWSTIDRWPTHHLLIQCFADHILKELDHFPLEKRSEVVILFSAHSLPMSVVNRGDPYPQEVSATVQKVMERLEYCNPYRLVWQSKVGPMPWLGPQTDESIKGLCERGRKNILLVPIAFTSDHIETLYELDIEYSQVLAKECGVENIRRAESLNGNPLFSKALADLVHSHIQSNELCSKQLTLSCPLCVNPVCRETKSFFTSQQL

compound: Nc1nc2c(ncn2[C@@H]2O[C@H](COP(=O)(O)OP(=O)(O)OP(=O)(O)O)[C@@H](O)[C@H]2O)c(=O)[nH]1; test: dose-dependent thermal stabilisation call (2D-TPP, DLPTP, 10% FDR) (binary (1 = stabilised)); higher = stabilised by the compound; details: system: Jurkat gel-filtered lysate; concentration range 1-500 µM

Row | Target | dose-dependent thermal stabilisation call
1 | ERBIN (UniProt Q96RT1) | inactive: 0
2 | FAM98C (UniProt Q17RN3) | active: 1
3 | EXOSC7 (UniProt Q15024) | inactive: 0
4 | EP300 (UniProt Q09472) | inactive: 0
5 | EPB41L2 (UniProt O43491) | inactive: 0
6 | FAM103A1 (UniProt Q9BTL3) | inactive: 0
7 | EIF2S3 (UniProt P41091) | inactive: 0
8 | FBXO42 (UniProt Q6P3S6) | inactive: 0
9 | EFTUD2 (UniProt Q15029) | active: 1
10 | FAM91A1 (UniProt Q658Y4) | inactive: 0
11 | ESYT2 (UniProt A0FGR8) | inactive: 0
12 | FHL2 (UniProt Q14192) | inactive: 0
13 | ERC1 (UniProt Q8IUD2) | inactive: 0
14 | FBXO7 (UniProt Q9Y3I1) | inactive: 0
15 | FRA10AC1 (UniProt Q70Z53) | inactive: 0
16 | ESYT1 (UniProt Q9BSJ8) | inactive: 0
17 | EPN1 (UniProt Q9Y6I3) | inactive: 0
18 | FSD1L (UniProt Q9BXM9) | inactive: 0

Single entries from the list.
Under dose-dependent thermal stabilisation call, ESYT1 (UniProt Q9BSJ8) has the entry inactive: 0
Under dose-dependent thermal stabilisation call, ERC1 (UniProt Q8IUD2) has the entry inactive: 0

Carrying on:

Row | Target | dose-dependent thermal stabilisation call
19 | ENOPH1 (UniProt Q9UHY7) | inactive: 0
20 | FERMT3 (UniProt Q86UX7) | inactive: 0
21 | EIF2S1 (UniProt P05198) | active: 1
22 | EIF4E (UniProt P06730) | active: 1
23 | FDX1 (UniProt P10109) | inactive: 0
24 | ELAC2 (UniProt Q9BQ52) | inactive: 0
25 | EIF4A1 (UniProt P60842) | inactive: 0
26 | FN3KRP (UniProt Q9HA64) | inactive: 0
27 | EPRS (UniProt P07814) | inactive: 0
28 | EXOSC2 (UniProt Q13868) | active: 1
29 | FAM133B (UniProt Q5BKY9) | inactive: 0
30 | ELP2 (UniProt Q6IA86) | inactive: 0
31 | EIF1AD (UniProt Q8N9N8) | inactive: 0
32 | EPS15L1 (UniProt Q9UBC2) | inactive: 0
33 | ERP44 (UniProt Q9BS26) | inactive: 0
34 | FXN (UniProt Q16595) | inactive: 0
35 | FECH (UniProt P22830) | inactive: 0
36 | ETNK1 (UniProt Q9HBU6) | active: 1
